The record followed here is article PMC3867403.

By UniProt entry, the sequences of proteins in these tests, tags left out. Residues count along the entry.
UniProt P51885, residues 19-338: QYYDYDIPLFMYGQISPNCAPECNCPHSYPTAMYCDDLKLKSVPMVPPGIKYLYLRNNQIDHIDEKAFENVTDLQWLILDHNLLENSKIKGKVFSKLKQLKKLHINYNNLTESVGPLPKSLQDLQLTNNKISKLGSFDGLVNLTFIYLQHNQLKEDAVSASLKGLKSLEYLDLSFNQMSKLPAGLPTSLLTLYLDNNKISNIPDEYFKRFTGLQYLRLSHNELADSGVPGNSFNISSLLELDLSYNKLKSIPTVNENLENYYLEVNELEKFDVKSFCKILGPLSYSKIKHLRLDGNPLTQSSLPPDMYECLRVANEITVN

These are yes or no findings as the source states them, for the method shown. Binding seen in cells or lysates may run through a third protein. Some entries that bind do so weakly or less than the wild type. Tags and fused reporters may be left off the sequences shown.

This experiment concerns the target c-myc tagged full length Lum (pSecTag-Lum-c-myc) (UniProt P51885). Nature of the experiment: co-IP; HEK293 cells co-transfected with ALK5-flag and Lum-myc, LumN288-myc or LumC50-myc; 0.5 mg/ml DSP on ice for 45 min; lysis in 50 mM Tris/HCl pH 7.4, 150 mM NaCl, 1% Triton X100; anti-c-myc Sepharose beads, eluted with c-myc peptide; blots with anti-flag and anti-c-myc.

B1: ALK5-Flag (transforming growth factor-β receptor 1, TGFBR1) (receptor, UniProt P36897 34-503)
chain: LQCFCHLCTKDNFTCVTDGLCFVSVTETTDKVIHNSMCIAEIDLIPRDRPFVCAPSSKTGSVTTTYCCNQDHCNKIELPTTVKSSPGLGPVELAAVIAGPVCFVCISLMLMVYICHNRTVIHHRVPNEEDPSLDRPFISEGTTLKDLIYDMTTSGSGSGLPLLVQRTIARTIVLQESIGKGRFGEVWRGKWRGEEVAVKIFSSREERSWFREAEIYQTVMLRHENILGFIAADNKDNGTWTQLWLVSDYHEHGSLFDYLNRYTVTVEGMIKLALSTASGLAHLHMEIVGTQGKPAIAHRDLKSKNILVKKNGTCCIADLGLAVRHDSATDTIDIAPNHRVGTKRYMAPEVLDDSINMKHFESFKRADIYAMGLVFWEIARRCSIGGIHEDYQLPYYDLVPSDPSVEEMRKVVCEQKLRPNIPNRWQSCEALRVMAKIMRECWYANGAARLTALRIKKTLSQLSQQEGIKM
As for B1, the binding result is recorded as “binds”.
